Measured values as given in patent US5976844A, “Riboflavin-production process by means of micro-organisms with modified isocitratlyase activity” (BASF Aktiengesellschaft, priority 1995, dated 1999).
At least one structure is not confirmed: it was looked up by name or label, or the drawing left a doubt.

Amino acid sequences for entries named in this document (tags omitted).
UniProt O94198, whole entry, stated change not applied: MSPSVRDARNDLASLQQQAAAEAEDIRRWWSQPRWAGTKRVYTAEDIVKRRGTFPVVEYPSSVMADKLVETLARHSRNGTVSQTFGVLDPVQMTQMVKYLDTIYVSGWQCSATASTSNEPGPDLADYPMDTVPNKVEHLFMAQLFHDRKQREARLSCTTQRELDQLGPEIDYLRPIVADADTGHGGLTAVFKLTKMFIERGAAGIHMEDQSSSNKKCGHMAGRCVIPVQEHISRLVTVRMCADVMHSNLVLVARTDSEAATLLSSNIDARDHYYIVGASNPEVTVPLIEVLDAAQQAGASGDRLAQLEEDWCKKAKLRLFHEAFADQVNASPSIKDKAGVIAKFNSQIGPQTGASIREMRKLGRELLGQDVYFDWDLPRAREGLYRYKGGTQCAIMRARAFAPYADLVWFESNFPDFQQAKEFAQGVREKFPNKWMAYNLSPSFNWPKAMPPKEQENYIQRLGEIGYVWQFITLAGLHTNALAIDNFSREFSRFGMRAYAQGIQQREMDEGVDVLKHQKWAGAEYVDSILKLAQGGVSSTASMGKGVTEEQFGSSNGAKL

Target: ICL from the mutant (Eremothecium gossypii, UniProt O94198)
Assay: Inhibition by itaconate of ICL from the itaconate-selected mutant
Type: biochemical, Ashbya gossypii
Conditions: ICL from UV-induced itaconate-resistant mutant

## C=C(CC(=O)O)C(=O)O [itaconate]
  behavior with regard to inhibition of ICL, mutant compared with starting strain: same behavior
